Data from publication PMC11867010.
These are yes or no findings as the source states them, for the method shown. In cells and extracts the contact can be indirect. Some binding calls cover weakened binding; strength is not graded here.

Amino acid sequences for entries named in this document (tags omitted). A change or cut given only in a name is not applied to a line headed by its entry. Chains listed by the source or under a name are the forms on record and can include a tag or linker.
UniProt P97879: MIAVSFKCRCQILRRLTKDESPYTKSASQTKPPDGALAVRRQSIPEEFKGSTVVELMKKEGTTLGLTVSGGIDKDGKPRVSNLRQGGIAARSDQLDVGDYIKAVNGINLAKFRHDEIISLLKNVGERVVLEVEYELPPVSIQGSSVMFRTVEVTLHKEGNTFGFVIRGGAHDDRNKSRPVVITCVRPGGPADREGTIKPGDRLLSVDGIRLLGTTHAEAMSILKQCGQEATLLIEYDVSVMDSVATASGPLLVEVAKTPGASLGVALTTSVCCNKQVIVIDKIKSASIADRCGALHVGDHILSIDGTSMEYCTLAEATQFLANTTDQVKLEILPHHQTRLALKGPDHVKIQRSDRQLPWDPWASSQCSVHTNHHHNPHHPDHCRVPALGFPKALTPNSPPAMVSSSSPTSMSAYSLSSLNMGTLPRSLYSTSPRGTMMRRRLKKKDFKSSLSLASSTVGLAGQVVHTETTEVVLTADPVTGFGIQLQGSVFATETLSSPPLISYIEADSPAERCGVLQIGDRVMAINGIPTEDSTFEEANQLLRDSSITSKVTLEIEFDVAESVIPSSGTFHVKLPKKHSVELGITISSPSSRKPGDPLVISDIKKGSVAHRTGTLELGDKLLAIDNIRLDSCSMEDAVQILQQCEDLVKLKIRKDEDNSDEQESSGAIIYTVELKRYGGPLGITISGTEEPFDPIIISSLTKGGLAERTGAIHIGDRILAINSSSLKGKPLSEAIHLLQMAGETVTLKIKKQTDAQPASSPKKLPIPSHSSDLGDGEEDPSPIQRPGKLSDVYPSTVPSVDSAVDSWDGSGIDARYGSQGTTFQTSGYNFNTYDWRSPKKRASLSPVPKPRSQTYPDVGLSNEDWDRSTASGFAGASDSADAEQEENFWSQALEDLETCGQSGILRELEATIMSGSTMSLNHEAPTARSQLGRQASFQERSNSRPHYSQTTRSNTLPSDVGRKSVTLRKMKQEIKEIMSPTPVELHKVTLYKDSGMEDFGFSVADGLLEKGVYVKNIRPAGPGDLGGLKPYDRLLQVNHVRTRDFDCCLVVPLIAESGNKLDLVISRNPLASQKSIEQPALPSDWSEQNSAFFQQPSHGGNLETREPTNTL
GluA3 (AMPA receptor subunit GluA3), wild type, full-length cDNA in pRK5-Dest (P19492-2, form named): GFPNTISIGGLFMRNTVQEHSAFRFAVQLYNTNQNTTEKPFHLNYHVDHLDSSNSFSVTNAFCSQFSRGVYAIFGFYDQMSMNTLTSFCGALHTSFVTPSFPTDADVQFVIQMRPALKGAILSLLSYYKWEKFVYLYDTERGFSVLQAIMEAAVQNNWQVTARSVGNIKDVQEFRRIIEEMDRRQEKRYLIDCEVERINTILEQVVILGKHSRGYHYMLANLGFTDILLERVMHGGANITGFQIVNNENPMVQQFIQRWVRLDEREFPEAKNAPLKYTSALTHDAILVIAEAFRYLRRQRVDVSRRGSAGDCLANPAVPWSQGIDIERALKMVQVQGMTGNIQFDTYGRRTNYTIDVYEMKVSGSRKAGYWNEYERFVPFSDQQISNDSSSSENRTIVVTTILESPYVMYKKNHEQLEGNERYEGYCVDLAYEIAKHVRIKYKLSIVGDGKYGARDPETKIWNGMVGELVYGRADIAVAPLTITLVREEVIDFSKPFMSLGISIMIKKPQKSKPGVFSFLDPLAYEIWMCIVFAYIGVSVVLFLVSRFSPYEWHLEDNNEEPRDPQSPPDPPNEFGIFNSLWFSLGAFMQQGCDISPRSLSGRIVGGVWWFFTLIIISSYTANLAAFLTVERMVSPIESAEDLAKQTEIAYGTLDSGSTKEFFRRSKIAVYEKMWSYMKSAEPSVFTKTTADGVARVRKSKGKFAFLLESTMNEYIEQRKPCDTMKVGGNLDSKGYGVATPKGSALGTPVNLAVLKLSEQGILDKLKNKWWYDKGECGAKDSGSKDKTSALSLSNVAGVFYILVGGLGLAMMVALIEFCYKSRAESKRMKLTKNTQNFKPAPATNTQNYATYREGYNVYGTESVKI
GluA3_(K887A), full-length cDNA in pRK5-Dest (P19492-2, form named): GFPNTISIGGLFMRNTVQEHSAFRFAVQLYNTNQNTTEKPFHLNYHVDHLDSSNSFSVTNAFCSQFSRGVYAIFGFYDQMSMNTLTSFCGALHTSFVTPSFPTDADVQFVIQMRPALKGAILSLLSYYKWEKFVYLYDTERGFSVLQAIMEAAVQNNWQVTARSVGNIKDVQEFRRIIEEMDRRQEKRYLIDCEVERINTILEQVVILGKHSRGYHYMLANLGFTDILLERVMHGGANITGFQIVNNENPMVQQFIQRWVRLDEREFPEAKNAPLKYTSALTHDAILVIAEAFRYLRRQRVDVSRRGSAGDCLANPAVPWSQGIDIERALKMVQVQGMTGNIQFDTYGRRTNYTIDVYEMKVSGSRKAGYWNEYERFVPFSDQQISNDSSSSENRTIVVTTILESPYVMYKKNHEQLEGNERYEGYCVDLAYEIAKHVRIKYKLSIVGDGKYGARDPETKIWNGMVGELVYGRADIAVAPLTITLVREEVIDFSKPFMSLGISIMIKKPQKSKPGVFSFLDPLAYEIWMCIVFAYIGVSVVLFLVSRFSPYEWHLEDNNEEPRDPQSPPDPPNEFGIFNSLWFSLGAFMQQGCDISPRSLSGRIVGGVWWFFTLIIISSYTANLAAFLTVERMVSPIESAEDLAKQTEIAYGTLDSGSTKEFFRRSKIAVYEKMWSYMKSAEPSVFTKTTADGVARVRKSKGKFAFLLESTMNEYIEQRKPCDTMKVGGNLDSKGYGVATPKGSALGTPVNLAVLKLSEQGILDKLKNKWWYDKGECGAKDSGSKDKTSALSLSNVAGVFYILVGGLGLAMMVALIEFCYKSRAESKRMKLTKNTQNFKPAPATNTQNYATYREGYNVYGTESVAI
GluA3_(S885A), full-length cDNA in pRK5-Dest (P19492-2, form named): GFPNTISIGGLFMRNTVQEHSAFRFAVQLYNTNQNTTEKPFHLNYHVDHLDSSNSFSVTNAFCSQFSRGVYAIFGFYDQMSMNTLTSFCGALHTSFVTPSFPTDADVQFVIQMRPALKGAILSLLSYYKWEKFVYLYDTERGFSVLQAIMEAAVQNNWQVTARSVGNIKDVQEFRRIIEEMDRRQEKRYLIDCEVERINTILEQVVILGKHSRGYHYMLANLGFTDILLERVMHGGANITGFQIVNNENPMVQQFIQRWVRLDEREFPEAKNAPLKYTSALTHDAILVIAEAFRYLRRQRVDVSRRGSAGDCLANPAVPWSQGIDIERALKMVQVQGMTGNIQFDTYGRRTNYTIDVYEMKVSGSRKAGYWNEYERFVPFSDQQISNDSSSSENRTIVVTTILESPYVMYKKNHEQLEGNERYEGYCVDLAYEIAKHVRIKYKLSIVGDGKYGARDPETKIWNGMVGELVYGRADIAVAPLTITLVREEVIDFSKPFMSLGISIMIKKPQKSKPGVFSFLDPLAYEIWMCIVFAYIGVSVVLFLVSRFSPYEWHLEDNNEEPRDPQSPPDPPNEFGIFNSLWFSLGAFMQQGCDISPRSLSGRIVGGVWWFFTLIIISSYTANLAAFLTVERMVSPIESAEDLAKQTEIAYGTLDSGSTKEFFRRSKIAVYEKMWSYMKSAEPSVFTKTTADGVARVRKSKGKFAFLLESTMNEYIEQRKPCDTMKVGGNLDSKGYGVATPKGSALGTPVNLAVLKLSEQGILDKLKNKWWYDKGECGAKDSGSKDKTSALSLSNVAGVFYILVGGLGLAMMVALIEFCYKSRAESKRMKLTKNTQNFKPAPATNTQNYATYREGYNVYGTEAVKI

Target: glutamate receptor-interacting protein (GRIP), V5-tagged (UniProt P97879)
Assay: co-IP; HEK cells co-transfected with Grip-V5 and a GluA3 variant; lysed after ~48 h in 25 mM HEPES/NaOH, 150 mM NaCl, pH 7.4, 2% Triton X-100; GRIP precipitated with anti-Grip (ABN27) and protein A/G agarose at 4°C, washed with 1% Triton X-100 buffer; blots with anti-GluA2/3 and anti-V5

“GluA3 (AMPA receptor subunit GluA3), wild type, full-length cDNA in pRK5-Dest (from UniProt P19492-2 23-888)” was tested, and the binding was “binds”.

In the case of “GluA3_(K887A), full-length cDNA in pRK5-Dest (from UniProt P19492-2 23-888) (receptor)”, the binding is reported as “binds”.

With “GluA3_(S885A), full-length cDNA in pRK5-Dest (from UniProt P19492-2 23-888) (receptor)” the binding was “no binding”.
